Results deposited as PubChem BioAssay AID743454 (Peter MacCallum Cancer Centre, 2014).
The whole screen tested about 18,000 reagents; shown is a part drawn at random. 450 of all reagents (2.5%) count as active. 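Single biological run; no consistent viability z cut-off exists, so the class columns, not z-scores, define the calls.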 A number with no mark means an inactive call. Reagent sequences are not shown.

- Purpose: 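Knock-downs lowering viability or raising caspase 3/7 activity in vorinostat-treated resistant cells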 (primary screen)
- Cell system: human HCT116-VR colon cancer cells, selected for vorinostat resistance
- Reagents: siRNA pool against human genes, 40 nM siRNA pool
- Timing: vorinostat for 24 h, read-out about 72 h after transfection
- Treatment: vorinostat at 2.5 µM final
- Measurement: 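Two measures, CellTiter-Fluor viability and luminescent caspase 3/7 activity, each as fold change against same-plate mock wells, mean of duplicates, then screen-wide robust z-score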
- Scale: viability robust z-score: higher = more viable cells than screen typical; caspase robust z-score: higher = more caspase 3/7 activity than screen typical
- Hit rule: 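Hits are knock-downs in viability class RV1/RV2 or caspase class CA1/CA2, excluding ones that killed cells in the no-drug cell-count arm; hits then retested with single siRNAs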

gene,viability hit class,caspase hit class,viability robust z-score,caspase robust z-score
CABP4,no change,no change,1.22,-0.3
CTSV,no change,no change,-0.12,-0.2
AEBP2,no change,no change,-0.23,-0.88
NOD2,no change,no change,0.46,0.26
PTPN5,no change,no change,-0.53,-0.47
KLF11,no change,no change,0.44,0.45
ATP5PB,no change,no change,-1.54,1.61
COXFA4,no change,no change,0.64,-0.97
ARHGAP11B,no change,no change,-0.74,-0.44
RBM7,no change,no change,-1.32,0.78
CAPN7,no change,no change,-0.24,-0.26
DDN,no change,no change,0.24,-0.64
WFIKKN2,no change,no change,-0.12,-0.87
SDC1,no change,no change,-3.56,1.77
RPL35,no change,no change,-5.78,-0.8
TEX13B,no change,no change,0.34,2.3
HOXB4,no change,no change,-0.09,0.96
ASPA,no change,no change,-0.32,-0.96
ZFR2,no change,no change,1.05,-0.42
SRSF10,no change,no change,0.14,-0.45
P2RY14,no change,no change,0.22,1.55
FANCB,no change,no change,0.73,-0.6
MYCN,no change,no change,0.56,-0.66
RGS19,no change,no change,0.23,-0.39
ZKSCAN7,no change,no change,0.16,-0.72
NKIRAS2,no change,no change,0.52,1.25
MYBPHL,no change,no change,-1.24,4.04
EFL1,no change,no change,-0.22,-0.67
CYTH2,no change,no change,0.36,-0.48
DPPA5,no change (active),CA1 (caspase activation),-0.98,6.21
EIF5B,no change,no change,0.74,-0.01
RBSN,no change,no change,-0.98,0.48
MIB2,no change,no change,0.68,1.9
MT1M,no change,no change,-0.12,1.57
ROM1,no change,no change,-0.34,-0.34
TAS2R16,no change,no change,-1.25,-1.05
PLXNA3,no change,no change,-0.28,1.51
ITGAV,no change,no change,0.22,-0.88
SMIM7,no change,no change,-1.05,0.12
OR4F15,no change,no change,0.19,0.14
CKMT1A,no change,no change,-1.64,0.8
KLRC2,no change,no change,2.42,-0.11
CTTN,no change,no change,1.1,0
OLFM3,no change,no change,0.63,-1.03
PXDNL,no change,no change,-0.62,0.55
TBL2,no change,no change,0.34,-0.22
POC5,no change,no change,-0.07,-1.04
DAPK3,no change,no change,1.06,1.34
RPS9,no change,no change,0.14,0.06
TCF7L1,no change,no change,0.22,-1.06
LIPC,no change,no change,0.4,-0.73
HHAT,no change,no change,-1.34,-0.2
CRLF2,no change,no change,0.4,2.74
MAF1,no change,no change,1.13,0.95
ASCL1,no change,no change,0.01,-0.91
CD320,no change,no change,-0.33,2.35
PELO,no change,no change,0.9,1.22
